# Screening data

From PubChem BioAssay record AID504749 (NCATS, 2011).

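Malaria parasite (P. falciparum) lines kept in red blood cells; parasite DNA is measured by SYBR Green fluorescence after lysis, 72 h after compound addition. Each compound was titrated across a series from about 0.000037 to 29 µM. The number is the fitted AC50, the concentration giving a half-maximal change in signal; a lower value means higher potency, whether the curve shows a decrease or an increase. Calls follow the curve class and fit quality: every row here is inconclusive, covering signal-raising curves and weak, poorly fitted, partial or highest-dose-only inhibition curves.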

Values are in µM. Every entry below has the call inconclusive. These entries are mostly ones the record files as inconclusive; other results of the assay are not listed here. A potency from a partial, single-point or poor curve is only a rough figure. Some entries filed as inconclusive have a full curve.

| compound | condition | Potency (µM) | curve as filed |
|---|---|---|---|
| `CCOC(=O)[C@H](CCc1ccccc1)N[C@H]1CS[C@H](c2cccs2)CN(CC(=O)O)C1=O` | N140 | 11.22 | inhibitor, single point |
| `CCOC(=O)[C@H](CCc1ccccc1)N[C@H]1CS[C@H](c2cccs2)CN(CC(=O)O)C1=O` | CP217 | 5.623 | inhibitor, partial curve |
| `CC(CN(C)C)CN1c2ccccc2Sc2ccc(C(F)(F)F)cc21` (stereo not given) | CP269 | 6.012 | inhibitor, partial curve, poor fit |
| `CC(CN(C)C)CN1c2ccccc2Sc2ccc(C(F)(F)F)cc21` (stereo not given) | AA1029 | 3.981 | inhibitor, partial curve |
| `CC(CN(C)C)CN1c2ccccc2Sc2ccc(C(F)(F)F)cc21` (stereo not given) | ATS189 | 10 | inhibitor, single point |
| `CC(CN(C)C)CN1c2ccccc2Sc2ccc(C(F)(F)F)cc21` (stereo not given) | CP256 | 3.981 | inhibitor, partial curve |
| `CC(CN(C)C)CN1c2ccccc2Sc2ccc(C(F)(F)F)cc21` (stereo not given) | CP291 | 1.694 | inhibitor, partial curve, poor fit |
| `CC(CN(C)C)CN1c2ccccc2Sc2ccc(C(F)(F)F)cc21` (stereo not given) | DIV30 | 5.358 | inhibitor, partial curve, poor fit |
| `CC(CN(C)C)CN1c2ccccc2Sc2ccc(C(F)(F)F)cc21` (stereo not given) | CP250 | 12.59 | inhibitor, single point |
| `CC(CN(C)C)CN1c2ccccc2Sc2ccc(C(F)(F)F)cc21` (stereo not given) | ATS95 | 7.08 | inhibitor, partial curve |
| `CC(CN(C)C)CN1c2ccccc2Sc2ccc(C(F)(F)F)cc21` (stereo not given) | CP265 | 4.467 | inhibitor, partial curve |
| `CC(CN(C)C)CN1c2ccccc2Sc2ccc(C(F)(F)F)cc21` (stereo not given) | CP268 | 0.3381 | inhibitor, full curve |
| `CC(CN(C)C)CN1c2ccccc2Sc2ccc(C(F)(F)F)cc21` (stereo not given) | CP247 | 3.162 | inhibitor, partial curve |
| `CC(CN(C)C)CN1c2ccccc2Sc2ccc(C(F)(F)F)cc21` (stereo not given) | HB3 | 17.78 | inhibitor, single point |
| `CC(CN(C)C)CN1c2ccccc2Sc2ccc(C(F)(F)F)cc21` (stereo not given) | TAB113 | 3.981 | inhibitor, partial curve |
| `CC(CN(C)C)CN1c2ccccc2Sc2ccc(C(F)(F)F)cc21` (stereo not given) | CP238 | 10 | inhibitor, partial curve |
| `CC(CN(C)C)CN1c2ccccc2Sc2ccc(C(F)(F)F)cc21` (stereo not given) | PAD | 5.012 | inhibitor, partial curve |
| `CC(CN(C)C)CN1c2ccccc2Sc2ccc(C(F)(F)F)cc21` (stereo not given) | CP237 | 10 | inhibitor, partial curve |
| `CC(CN(C)C)CN1c2ccccc2Sc2ccc(C(F)(F)F)cc21` (stereo not given) | PC15 | 5.012 | inhibitor, partial curve |
| `CC(CN(C)C)CN1c2ccccc2Sc2ccc(C(F)(F)F)cc21` (stereo not given) | C2A | 11.22 | inhibitor, partial curve |
| `CC(CN(C)C)CN1c2ccccc2Sc2ccc(C(F)(F)F)cc21` (stereo not given) | CP185 | 12.59 | inhibitor, partial curve |
| `CC(CN(C)C)CN1c2ccccc2Sc2ccc(C(F)(F)F)cc21` (stereo not given) | JCK | 5.623 | inhibitor, partial curve |
| `CC(CN(C)C)CN1c2ccccc2Sc2ccc(C(F)(F)F)cc21` (stereo not given) | CP262 | 21.33 | inhibitor, partial curve, poor fit |
| `CC(CN(C)C)CN1c2ccccc2Sc2ccc(C(F)(F)F)cc21` (stereo not given) | CP217 | 10 | inhibitor, partial curve |
| `CC(CN(C)C)CN1c2ccccc2Sc2ccc(C(F)(F)F)cc21` (stereo not given) | CP211 | 6.012 | inhibitor, partial curve |
| `CC(CN(C)C)CN1c2ccccc2Sc2ccc(C(F)(F)F)cc21` (stereo not given) | SC27B | 3.548 | inhibitor, partial curve |
| `CC(CN(C)C)CN1c2ccccc2Sc2ccc(C(F)(F)F)cc21` (stereo not given) | CP252 | 5.623 | inhibitor, partial curve |
| `CC(CN(C)C)CN1c2ccccc2Sc2ccc(C(F)(F)F)cc21` (stereo not given) | ECU | 12.59 | inhibitor, partial curve, poor fit |
| `CC(CN(C)C)CN1c2ccccc2Sc2ccc(C(F)(F)F)cc21` (stereo not given) | PC49 | 1.995 | inhibitor, full curve |
| `CC(CN(C)C)CN1c2ccccc2Sc2ccc(C(F)(F)F)cc21` (stereo not given) | CP201 | 2.686 | inhibitor, partial curve, poor fit |

Some entries from above, unchanged:

{"compound": "CC(CN(C)C)CN1c2ccccc2Sc2ccc(C(F)(F)F)cc21", "stereo": "stereo not given", "condition": "CP268", "Potency (µM)": "0.3381", "curve as filed": "inhibitor, full curve"}
{"compound": "CC(CN(C)C)CN1c2ccccc2Sc2ccc(C(F)(F)F)cc21", "stereo": "stereo not given", "condition": "CP250", "Potency (µM)": "12.59", "curve as filed": "inhibitor, single point"}
{"compound": "CC(CN(C)C)CN1c2ccccc2Sc2ccc(C(F)(F)F)cc21", "stereo": "stereo not given", "condition": "JCK", "Potency (µM)": "5.623", "curve as filed": "inhibitor, partial curve"}